Reference: the supplement of paper PMC10849652
This is one part of the list.

Sequences of proteins named here, by UniProt entry; tags and fusion partners are left off. A change or cut given only in a name is not applied to a line headed by its entry.
UniProt Q9Y587: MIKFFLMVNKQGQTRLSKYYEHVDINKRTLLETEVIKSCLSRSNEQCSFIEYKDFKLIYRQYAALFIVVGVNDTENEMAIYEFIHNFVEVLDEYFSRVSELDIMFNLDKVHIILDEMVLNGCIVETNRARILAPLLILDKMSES
UniProt Q8IZ07: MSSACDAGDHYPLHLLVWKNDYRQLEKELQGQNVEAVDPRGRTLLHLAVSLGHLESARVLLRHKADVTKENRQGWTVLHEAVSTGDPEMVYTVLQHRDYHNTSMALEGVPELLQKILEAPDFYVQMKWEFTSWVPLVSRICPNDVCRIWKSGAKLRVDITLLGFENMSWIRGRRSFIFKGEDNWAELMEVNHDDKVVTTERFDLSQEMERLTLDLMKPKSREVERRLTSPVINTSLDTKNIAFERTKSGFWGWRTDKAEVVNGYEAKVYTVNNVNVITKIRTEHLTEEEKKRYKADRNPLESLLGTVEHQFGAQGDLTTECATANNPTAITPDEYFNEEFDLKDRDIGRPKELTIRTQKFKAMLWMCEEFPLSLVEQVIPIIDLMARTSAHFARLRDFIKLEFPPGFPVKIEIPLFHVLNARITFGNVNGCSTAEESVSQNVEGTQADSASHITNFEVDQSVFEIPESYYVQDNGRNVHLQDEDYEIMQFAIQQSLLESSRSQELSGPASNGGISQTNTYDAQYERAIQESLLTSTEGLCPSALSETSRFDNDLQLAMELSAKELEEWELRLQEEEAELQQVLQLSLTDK
UniProt P13798: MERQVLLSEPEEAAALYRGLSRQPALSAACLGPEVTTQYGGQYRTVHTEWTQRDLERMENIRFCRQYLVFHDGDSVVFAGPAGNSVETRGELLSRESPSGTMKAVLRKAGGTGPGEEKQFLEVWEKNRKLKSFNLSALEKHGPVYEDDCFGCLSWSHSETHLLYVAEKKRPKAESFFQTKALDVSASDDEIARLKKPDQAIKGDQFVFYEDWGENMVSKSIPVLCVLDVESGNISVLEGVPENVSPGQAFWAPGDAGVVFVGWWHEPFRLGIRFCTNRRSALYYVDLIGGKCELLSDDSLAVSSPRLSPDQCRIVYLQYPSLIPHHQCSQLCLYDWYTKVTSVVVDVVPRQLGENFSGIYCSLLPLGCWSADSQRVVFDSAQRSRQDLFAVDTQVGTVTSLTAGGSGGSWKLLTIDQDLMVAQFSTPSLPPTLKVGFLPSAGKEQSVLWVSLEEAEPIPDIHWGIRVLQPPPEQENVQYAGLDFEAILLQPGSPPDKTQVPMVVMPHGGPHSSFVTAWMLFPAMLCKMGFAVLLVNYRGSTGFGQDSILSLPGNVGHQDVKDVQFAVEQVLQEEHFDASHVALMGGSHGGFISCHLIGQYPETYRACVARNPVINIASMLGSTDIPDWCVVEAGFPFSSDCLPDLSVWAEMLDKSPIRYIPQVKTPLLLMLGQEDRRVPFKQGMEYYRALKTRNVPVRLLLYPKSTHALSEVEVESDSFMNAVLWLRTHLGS
UniProt P53365: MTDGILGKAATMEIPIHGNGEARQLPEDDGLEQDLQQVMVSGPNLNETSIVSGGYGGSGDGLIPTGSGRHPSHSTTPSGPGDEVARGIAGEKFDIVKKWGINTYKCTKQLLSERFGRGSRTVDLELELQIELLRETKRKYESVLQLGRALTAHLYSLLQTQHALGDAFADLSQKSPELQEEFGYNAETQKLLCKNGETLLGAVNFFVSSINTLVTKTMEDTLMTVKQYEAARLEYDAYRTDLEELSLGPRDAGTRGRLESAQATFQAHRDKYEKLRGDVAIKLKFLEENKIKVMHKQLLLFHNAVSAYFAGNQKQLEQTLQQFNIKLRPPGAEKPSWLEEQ
UniProt P09525: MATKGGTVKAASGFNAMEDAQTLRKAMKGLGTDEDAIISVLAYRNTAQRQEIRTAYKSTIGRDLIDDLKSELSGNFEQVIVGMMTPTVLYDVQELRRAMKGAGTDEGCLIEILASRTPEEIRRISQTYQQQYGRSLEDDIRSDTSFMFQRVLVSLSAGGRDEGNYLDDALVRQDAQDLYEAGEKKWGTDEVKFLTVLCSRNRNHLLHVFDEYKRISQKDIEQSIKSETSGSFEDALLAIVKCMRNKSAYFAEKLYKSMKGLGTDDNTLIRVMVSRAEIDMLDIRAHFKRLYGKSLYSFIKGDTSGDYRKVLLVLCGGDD
UniProt Q9H8Y5: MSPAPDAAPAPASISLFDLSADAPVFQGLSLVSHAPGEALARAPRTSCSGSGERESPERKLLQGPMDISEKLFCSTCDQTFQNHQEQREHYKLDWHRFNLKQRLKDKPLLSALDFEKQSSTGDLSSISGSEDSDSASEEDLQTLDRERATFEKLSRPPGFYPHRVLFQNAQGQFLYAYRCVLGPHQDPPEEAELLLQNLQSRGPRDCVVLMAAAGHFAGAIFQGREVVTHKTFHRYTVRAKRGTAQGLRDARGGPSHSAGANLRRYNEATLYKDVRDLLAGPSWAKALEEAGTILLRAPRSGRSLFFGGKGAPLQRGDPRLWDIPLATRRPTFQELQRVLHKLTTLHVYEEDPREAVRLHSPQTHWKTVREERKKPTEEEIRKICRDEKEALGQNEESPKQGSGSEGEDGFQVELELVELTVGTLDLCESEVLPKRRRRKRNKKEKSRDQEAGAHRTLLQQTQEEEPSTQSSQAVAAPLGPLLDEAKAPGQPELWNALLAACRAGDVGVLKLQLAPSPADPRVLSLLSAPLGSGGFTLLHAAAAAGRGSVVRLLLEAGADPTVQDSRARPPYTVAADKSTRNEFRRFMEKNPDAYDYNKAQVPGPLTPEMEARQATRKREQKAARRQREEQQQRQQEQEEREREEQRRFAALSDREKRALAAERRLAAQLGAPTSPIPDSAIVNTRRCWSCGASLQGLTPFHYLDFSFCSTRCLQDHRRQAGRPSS
UniProt Q0VD83: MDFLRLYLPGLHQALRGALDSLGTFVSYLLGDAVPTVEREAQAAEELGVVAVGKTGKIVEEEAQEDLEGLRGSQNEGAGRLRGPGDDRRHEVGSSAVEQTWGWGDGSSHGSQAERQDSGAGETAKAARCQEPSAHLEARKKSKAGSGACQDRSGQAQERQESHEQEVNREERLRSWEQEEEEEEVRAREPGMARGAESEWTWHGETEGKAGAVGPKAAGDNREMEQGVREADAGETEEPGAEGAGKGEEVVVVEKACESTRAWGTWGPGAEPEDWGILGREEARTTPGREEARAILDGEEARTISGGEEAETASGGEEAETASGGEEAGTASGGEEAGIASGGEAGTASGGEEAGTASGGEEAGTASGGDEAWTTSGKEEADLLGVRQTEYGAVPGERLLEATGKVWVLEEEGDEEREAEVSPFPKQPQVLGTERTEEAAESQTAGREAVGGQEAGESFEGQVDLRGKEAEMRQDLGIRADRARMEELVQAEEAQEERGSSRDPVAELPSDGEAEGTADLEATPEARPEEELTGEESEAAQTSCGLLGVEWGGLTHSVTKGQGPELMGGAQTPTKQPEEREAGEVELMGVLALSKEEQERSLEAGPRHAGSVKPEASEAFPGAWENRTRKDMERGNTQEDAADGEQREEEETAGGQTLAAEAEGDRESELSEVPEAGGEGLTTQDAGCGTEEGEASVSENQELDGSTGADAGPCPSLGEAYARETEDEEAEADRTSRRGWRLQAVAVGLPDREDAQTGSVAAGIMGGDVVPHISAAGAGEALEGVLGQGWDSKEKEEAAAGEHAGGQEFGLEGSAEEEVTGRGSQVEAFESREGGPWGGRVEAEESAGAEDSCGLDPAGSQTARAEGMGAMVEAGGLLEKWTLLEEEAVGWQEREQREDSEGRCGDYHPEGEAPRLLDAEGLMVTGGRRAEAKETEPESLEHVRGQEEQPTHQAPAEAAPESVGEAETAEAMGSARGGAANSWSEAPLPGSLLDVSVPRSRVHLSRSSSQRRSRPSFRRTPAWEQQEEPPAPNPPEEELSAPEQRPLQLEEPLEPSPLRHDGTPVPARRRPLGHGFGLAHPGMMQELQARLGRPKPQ
UniProt P20073: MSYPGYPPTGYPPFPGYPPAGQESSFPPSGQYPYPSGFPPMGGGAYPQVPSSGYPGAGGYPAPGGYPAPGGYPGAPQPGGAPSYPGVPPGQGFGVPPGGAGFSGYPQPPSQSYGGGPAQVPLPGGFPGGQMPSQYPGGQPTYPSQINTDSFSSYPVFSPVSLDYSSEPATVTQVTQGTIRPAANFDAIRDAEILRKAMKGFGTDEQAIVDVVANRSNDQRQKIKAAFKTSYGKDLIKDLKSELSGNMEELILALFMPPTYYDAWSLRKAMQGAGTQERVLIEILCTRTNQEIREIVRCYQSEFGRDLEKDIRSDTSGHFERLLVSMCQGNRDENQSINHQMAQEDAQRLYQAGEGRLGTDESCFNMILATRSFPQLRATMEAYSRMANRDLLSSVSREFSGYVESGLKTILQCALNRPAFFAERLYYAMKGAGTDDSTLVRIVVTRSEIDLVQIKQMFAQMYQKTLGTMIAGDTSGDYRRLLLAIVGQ
UniProt Q9BQD7: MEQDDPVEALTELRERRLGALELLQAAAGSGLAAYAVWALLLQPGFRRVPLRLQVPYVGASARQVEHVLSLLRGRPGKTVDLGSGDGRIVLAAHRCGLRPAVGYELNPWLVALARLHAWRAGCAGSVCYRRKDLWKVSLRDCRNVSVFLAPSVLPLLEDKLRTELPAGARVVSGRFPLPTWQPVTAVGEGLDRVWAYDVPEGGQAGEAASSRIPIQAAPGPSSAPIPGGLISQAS
UniProt Q68EM7: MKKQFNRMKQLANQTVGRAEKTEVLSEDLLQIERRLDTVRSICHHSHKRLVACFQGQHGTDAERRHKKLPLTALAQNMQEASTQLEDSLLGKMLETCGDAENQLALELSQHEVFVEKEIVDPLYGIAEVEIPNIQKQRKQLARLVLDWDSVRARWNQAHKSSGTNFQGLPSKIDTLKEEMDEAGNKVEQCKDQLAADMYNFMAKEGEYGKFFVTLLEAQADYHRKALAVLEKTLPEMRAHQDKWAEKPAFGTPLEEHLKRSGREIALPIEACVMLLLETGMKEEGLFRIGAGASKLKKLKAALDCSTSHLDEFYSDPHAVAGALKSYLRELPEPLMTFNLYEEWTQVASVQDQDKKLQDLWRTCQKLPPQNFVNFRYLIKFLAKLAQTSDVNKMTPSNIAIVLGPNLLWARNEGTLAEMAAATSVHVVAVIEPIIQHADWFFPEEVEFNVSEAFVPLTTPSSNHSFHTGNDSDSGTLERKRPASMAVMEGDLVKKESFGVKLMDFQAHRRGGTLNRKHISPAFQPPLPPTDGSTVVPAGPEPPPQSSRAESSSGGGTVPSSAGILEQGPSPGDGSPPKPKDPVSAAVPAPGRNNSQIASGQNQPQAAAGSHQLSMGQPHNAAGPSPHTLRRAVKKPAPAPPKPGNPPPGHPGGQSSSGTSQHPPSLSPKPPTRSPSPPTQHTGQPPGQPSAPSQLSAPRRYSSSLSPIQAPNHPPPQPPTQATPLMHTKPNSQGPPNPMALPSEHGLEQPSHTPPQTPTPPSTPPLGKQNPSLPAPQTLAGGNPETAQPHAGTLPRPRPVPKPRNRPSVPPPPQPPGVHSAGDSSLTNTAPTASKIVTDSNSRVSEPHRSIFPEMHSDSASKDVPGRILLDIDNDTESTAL
UniProt Q9BZZ5: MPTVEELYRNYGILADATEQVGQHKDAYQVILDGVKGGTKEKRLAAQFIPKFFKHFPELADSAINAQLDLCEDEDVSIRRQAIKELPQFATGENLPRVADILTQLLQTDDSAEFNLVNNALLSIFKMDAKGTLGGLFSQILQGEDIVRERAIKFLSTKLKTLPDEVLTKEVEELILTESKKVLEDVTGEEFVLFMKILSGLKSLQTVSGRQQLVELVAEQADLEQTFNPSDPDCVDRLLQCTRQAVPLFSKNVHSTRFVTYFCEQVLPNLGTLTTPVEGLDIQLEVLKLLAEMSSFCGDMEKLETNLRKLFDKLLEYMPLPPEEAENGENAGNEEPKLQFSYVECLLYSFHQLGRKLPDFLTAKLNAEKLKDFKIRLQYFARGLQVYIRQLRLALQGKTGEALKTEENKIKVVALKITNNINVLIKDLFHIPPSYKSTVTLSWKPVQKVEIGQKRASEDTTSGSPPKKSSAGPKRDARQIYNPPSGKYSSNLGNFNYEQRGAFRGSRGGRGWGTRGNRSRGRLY
UniProt P08758: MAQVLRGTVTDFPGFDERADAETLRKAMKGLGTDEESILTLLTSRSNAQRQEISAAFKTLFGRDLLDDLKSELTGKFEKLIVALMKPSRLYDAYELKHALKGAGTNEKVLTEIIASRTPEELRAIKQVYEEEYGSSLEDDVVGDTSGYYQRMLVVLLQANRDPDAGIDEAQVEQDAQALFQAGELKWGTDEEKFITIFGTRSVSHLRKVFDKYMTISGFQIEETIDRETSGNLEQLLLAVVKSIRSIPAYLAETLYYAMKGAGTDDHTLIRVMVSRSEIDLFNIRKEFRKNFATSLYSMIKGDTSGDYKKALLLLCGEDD
UniProt P02654: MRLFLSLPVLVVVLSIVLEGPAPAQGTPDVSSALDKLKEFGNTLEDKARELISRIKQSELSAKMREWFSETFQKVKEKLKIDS

What follows are targets tested with CC1=C2C(=CC=C1)N=C(N(C2=O)C3=CC=CC=C3C)CN4C=NC5=C(N=CN=C54)N (assay: log2 fold change, soluble protein after heating vs DMSO (PISA); higher = thermal stabilisation; K562 cells, 10 uM, 30 min; active = over 0.2 and 3.5 SD of the protein, either way, in both replicates (recomputed)).
In short: (§1)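 Values are thermal stability changes relative to control samples and are taken from duplicates. They are stated as log2 fold changes. Before quantification by TMTpro 16plex LC-MS/MS with equalised channel sums, K562 cells at 2×10^6 cells/mL were treated with 10 μM compound for 30 min, heated in aliquots for 3 min across 48°C-58°C, pooled, extracted in PBS with 0.5% NP-40 at 4°C, and centrifuged at 21,000xg for 90 min to give the soluble supernatant.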
AP3D1 isoform 5 (UniProt O14617) was tested, and the log2 fold change was inactive: -0.017.
AP4S1 (UniProt Q9Y587) was tested, and the log2 fold change was inactive: 0.069.
With ANKRD13A (UniProt Q8IZ07) the log2 fold change was inactive: 0.071.
With APEH (UniProt P13798) the log2 fold change was inactive: 0.036.
For ARFIP2 (UniProt P53365), the log2 fold change was inactive: -0.035.
For ANXA4 (UniProt P09525), the log2 fold change was inactive: 0.126.
ARF1 (UniProt P84077) was tested, and the log2 fold change was inactive: 0.03.
With APC (UniProt P25054) the log2 fold change was inactive: 0.108.
With APOL2 (UniProt J3KQL8) the log2 fold change was inactive: 0.001.
For ARFIP1 (UniProt P53367), the log2 fold change was inactive: 0.051.
For ANKZF1 (UniProt Q9H8Y5), the log2 fold change was inactive: -0.01.
In the case of APOO (UniProt Q9BUR5), the log2 fold change is reported as inactive: 0.068.
For APOBR (UniProt Q0VD83), the log2 fold change was inactive: 0.028.

Each target was assayed with Cc1sc2c(c1C)C(c1ccc(Cl)cc1)=N[C@@H](CC(=O)OC(C)(C)C)c1nnc(C)n1-2 in the same assay as above.
In short: as §1
AP4E1 (UniProt Q9UPM8) was tested, and the log2 fold change was inactive: -0.059.
For ANXA7 (UniProt P20073), the log2 fold change was inactive: -0.009.
For AP1M1 (UniProt Q9BXS5), the log2 fold change was inactive: 0.005.
In the case of AP2A2 isoform 2 (UniProt O94973), the log2 fold change is reported as inactive: 0.048.
With ARAF (UniProt P10398) the log2 fold change was inactive: 0.022.
For ANO10 (UniProt Q9NW15), the log2 fold change was inactive: -0.064.
With ARFGAP1 (UniProt Q8N6T3) the log2 fold change was inactive: -0.064.
In the case of ANTKMT (UniProt Q9BQD7), the log2 fold change is reported as inactive: -0.162.
For AP2M1 (UniProt C9JTK4), the log2 fold change was inactive: 0.136.
ARHGAP17 (UniProt Q68EM7) was tested, and the log2 fold change was inactive: -0.093.
In the case of ANTXR2 isoform 4 (UniProt P58335), the log2 fold change is reported as inactive: 0.017.
For API5 isoform 2 (UniProt Q9BZZ5), the log2 fold change was inactive: -0.03.
For ANO6 isoform 2 (UniProt Q4KMQ2), the log2 fold change was inactive: -0.031.
For AP1B1 (UniProt Q10567), the log2 fold change was inactive: 0.019.
For ANXA5 (UniProt P08758), the log2 fold change was inactive: 0.021.
With ARF5 (UniProt P84085) the log2 fold change was inactive: -0.024.
In the case of ARFGEF1 (UniProt Q9Y6D6), the log2 fold change is reported as inactive: -0.063.
With APOC1 (UniProt P02654) the log2 fold change was inactive: -0.061.
For AP1S1 (UniProt P61966), the log2 fold change was inactive: -0.025.
With ANP32B (UniProt Q92688) the log2 fold change was inactive: -0.019.
APOH (UniProt P02749) was tested, and the log2 fold change was inactive: -0.051.
In the case of ANXA2 isoform 2 (UniProt P07355), the log2 fold change is reported as inactive: -0.04.
For AP3D1 isoform 5 (UniProt O14617), the log2 fold change was inactive: 0.031.
With ANKRD13A (UniProt Q8IZ07) the log2 fold change was inactive: -0.014.
APOL1 isoform 2 (UniProt O14791) was tested, and the log2 fold change was inactive: -0.222.
In the case of APEH (UniProt P13798), the log2 fold change is reported as inactive: -0.004.
With ARFIP2 (UniProt P53365) the log2 fold change was inactive: -0.086.
With ANXA4 (UniProt P09525) the log2 fold change was inactive: 0.025.
ARF1 (UniProt P84077) was tested, and the log2 fold change was inactive: 0.123.
For APC (UniProt P25054), the log2 fold change was inactive: 0.016.
In the case of APPBP2 (UniProt Q92624), the log2 fold change is reported as inactive: -0.027.
In the case of APOL2 (UniProt J3KQL8), the log2 fold change is reported as inactive: 0.012.
For ARFIP1 (UniProt P53367), the log2 fold change was inactive: -0.065.
ANKZF1 (UniProt Q9H8Y5) was tested, and the log2 fold change was inactive: 0.15.
APOO (UniProt Q9BUR5) was tested, and the log2 fold change was inactive: -0.028.
In the case of APOBR (UniProt Q0VD83), the log2 fold change is reported as inactive: 0.028.
